# Data taken from patent publication US5086165A, “Inhibitors of retroviral protease with a ketomethylene isosteric replaced amide bond” (Washington University, priority 1991, dated 1992).
# Part of at least one peptide drawing is inferred or uncertain, most often the ends. Where a SMILES comes first, the peptide text is derived from it.
# Target: HIV protease (Human immunodeficiency virus type 1 group M subtype B, UniProt P04585)
# Format: biochemical
# Set-up: made in house; host or cells: chemical synthesis (gift of Dr. Stephen Kent, Caltech) or E. coli (gift of Dr. George Glover, Monsanto)
# Details: relative cleavage rate: percent of standard substrate concentration cleaved in twenty minutes, control Ac-Thr-Ile-Met-Met-Gln-Arg-NH2 = 1.00
# Procedure: HIV protease assay. The HIV protease assay was conducted using either synthetic HIV protease [Schneider and Kent, Cell 54, 363 (1988)] kindly supplied by Dr. Stephen Kent of Caltech, or cloned material expressed in E. coli supplied by Dr. George Glover of the Monsanto Company. […] Synthetic protease (1 mg/ml) was dissolved in a buffer (20 mM PIPES, 0.5% NP-40 detergent, 1 mM dithiothreitol), pH 6.5 . Substrates were also dissolved in the same buffer at 1 mg/ml concentration. 5 μl 1 of substrate and 5 μl of HIV protease were added to an Eppendorf tube which was centrifuged for one minute and incubated at 25° for the desired time. The reaction was stopped by the addition of 50 μl of 50% TFA. The sample was diluted with 200 μl of water and applied to a C4 HPLC column developed with 0.1% TFA for 5 min followed by a gradient of 0-50% acetonitrile in 50 min. For inhibitor studies, 5 μl of the protease solution was preincubated for 10 min with the 5 μl of inhibitor (dissolved in 10% DMSO and diluted to 1 mg/ml with buffer). […] Reactions were stopped as above and cleavage rates were monitored by HPLC as above.
# Substrate analogs were prepared in order to examine the relative hydrolysis rates of the various sites. […] Relative cleavage rates were measured by comparing the percent of a standard substrate concentration cleaved by the same concentration of enzyme in twenty minutes (linear portion of curve).
compound,measurement,value
CCCC[C@H](NC(=O)[C@@H](NC(=O)[C@@H](NC(C)=O)[C@@H](C)O)[C@@H](C)CC)C(=O)N[C@@H](Cc1ccc([N+](=O)[O-])cc1)C(=O)N[C@@H](CCC(N)=O)C(=O)N[C@@H](CCCNC(=N)N)C(N)=O [Ac--Thr--Ile--Nle--PnF--Gln--Arg--NH2] (HELM PEPTIDE1{[ac].T.I.[Nle].[O=C([C@H](Cc1ccc([N+](=O)[O-])cc1)N[*:1])[*:2]].Q.R.[am]}$$$$V2.0),Relative Rate,0.57
